Experimental findings from patent US20110082197A1, “Method for inhibiting formation and/or activation of osteoclasts using flemingia macrophylla extract or lespedeza flavanone A” (CHINA MEDICAL UNIVERSITY, priority 2009, published 2011) are described below.

Assay [1] concerns OVX rats. Put plainly: Weight ratio of bone ash and calcium content of fifth vertebra. In kind it is in vivo, Wistar rats. Particulars: % of dry weight, oral, alendronate 2.5 mg/kg-body weight per day, 13 weeks. As to the method:
(§1) Female Wistar rats (BioLASCO, Taipei, Taiwan) were used in the following experiments. In an experiment group, the rats were anesthetized with 40 mg/kg-body weight of pentobarbital sodium, and ovaries in both sides of the dorsum of the rats were removed to induce osteoporosis, and a decrease in estrogen of the postmenopausal female rats was observed. The rats of which ovaries were removed (i.e., ovariectomized rat) are represented as “OVX rats” hereinafter. In the control group (i.e., a sham group), the skin and muscle on the ovary positions at both sides of the dorsum of the rats were incised and then sutured, while the ovaries were not removed.
(§2) After one week from the surgery, the control group was administrated water orally every day. In the experiment group, the OVX rats were separated into five groups, and were orally administrated with the Flemingia macrophylla extract (0, 50, 250 or 500 mg/kg-body weight, calculated as the dry weight of the extract) or 2.5 mg/kg-body weight of alendronate (an anti-osteoporosis drug as a positive control, Sigma-Aldrich, St. Louis, Mo., USA) per day for 13 weeks. During the administration, the body weight of each rat was measured once a week until the last day of the administration. Distilled water was added into the extract to form a suspension, and the rats were administrated orally with 1 ml/100 g-body weight of the suspension. […]

Assay [2] relates to OVX rats. Put plainly: Density and content of minerals in tibiae (dual-energy X-ray absorptiometer). In kind it is in vivo, Wistar rats. Particulars: oral, alendronate 2.5 mg/kg-body weight per day, 13 weeks. As to the method:
as §1, §2

As for `NCCCC(O)(P(=O)(O)O)P(=O)(O)O` [alendronate], the “the weight ratio of bone ash” value with OVX rats [1] is 62.1 ± 1.5 %. In addition, the mineral density in the assay on OVX rats [2] came out at 0.14 ± 0.01 g/mL.
